These are yes or no findings as the source states them, for the method shown. In cells and extracts the contact can be indirect. These calls come from enrichment with a bait or labelling near it, and not all partners need be listed.
Tests used:
[1] = target: recombinant (r) PCSK9 carrier-free (CF) protein (UniProt Q8NBP7); test: affinity purification with mass spectrometry; His-tagged rPCSK9 held on HisPur Ni-NTA resin at 4 °C; concentrated medium proteins at pH 5.0 passed three times; wash 25 mM imidazole, elution 250 mM imidazole; fractions 2-8 pooled, LC-MS/MS; only the target purified
[2] = target: recombinant (r) PCSK9 carrier-free (CF) protein (UniProt Q8NBP7); test: affinity purification with mass spectrometry; His-tagged rPCSK9 held on HisPur Ni-NTA resin at 4 °C; concentrated medium proteins at pH 7.4 passed three times; wash 25 mM imidazole, elution 250 mM imidazole; fractions 2-8 pooled, LC-MS/MS; only the target purified

Amino acid sequences for entries named in this document (tags omitted). A change or cut given only in a name is not applied to a line headed by its entry. Residues count along the entry.
UniProt Q8NBP7: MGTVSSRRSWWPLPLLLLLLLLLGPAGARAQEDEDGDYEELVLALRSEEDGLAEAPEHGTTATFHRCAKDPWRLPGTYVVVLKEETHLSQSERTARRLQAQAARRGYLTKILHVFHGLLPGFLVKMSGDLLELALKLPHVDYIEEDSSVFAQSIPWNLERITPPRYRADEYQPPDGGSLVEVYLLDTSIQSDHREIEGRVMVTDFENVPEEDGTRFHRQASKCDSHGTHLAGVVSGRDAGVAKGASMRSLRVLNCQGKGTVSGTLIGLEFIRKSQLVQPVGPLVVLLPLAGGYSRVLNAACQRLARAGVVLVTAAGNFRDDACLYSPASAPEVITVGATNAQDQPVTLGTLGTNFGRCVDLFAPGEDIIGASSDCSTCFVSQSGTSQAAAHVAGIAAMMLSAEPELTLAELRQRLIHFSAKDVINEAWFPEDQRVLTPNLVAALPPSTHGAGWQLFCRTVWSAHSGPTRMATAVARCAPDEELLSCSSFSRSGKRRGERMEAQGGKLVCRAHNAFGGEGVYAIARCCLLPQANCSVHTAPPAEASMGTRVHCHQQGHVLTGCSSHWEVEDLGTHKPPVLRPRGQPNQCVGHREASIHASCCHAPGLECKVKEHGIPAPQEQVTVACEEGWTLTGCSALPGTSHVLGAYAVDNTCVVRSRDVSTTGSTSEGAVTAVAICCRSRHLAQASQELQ
UniProt P02749, residues 20-345: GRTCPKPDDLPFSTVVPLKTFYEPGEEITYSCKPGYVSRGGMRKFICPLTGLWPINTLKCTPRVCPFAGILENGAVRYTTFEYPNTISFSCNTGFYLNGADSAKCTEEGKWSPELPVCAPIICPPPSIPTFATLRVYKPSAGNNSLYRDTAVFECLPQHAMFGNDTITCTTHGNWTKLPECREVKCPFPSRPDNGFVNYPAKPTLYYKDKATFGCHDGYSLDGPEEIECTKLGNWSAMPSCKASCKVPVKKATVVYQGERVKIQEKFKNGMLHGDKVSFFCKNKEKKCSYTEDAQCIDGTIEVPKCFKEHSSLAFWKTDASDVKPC
UniProt P01009, residues 25-418: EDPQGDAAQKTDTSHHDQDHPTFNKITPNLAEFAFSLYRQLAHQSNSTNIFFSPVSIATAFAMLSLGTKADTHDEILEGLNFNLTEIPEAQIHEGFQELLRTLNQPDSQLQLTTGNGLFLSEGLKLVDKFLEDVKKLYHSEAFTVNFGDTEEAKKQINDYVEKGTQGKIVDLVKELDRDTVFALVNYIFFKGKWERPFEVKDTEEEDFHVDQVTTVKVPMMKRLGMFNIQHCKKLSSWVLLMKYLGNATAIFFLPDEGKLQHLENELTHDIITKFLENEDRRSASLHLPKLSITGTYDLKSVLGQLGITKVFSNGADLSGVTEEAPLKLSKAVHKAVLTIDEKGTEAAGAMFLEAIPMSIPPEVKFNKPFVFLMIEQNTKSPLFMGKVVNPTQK

| binding [1] | binding [2] | Molecule |
| --- | --- | --- |
| binds |  | apolipoprotein H (from UniProt P02749 20-345) |
| binds | binds | alpha-1-antitrypsin (from UniProt P01009 25-418) |
| binds | binds | alpha-1-microglobulin/bikunin precursor (protein, UniProt P02760 20-352) GPVPTPPDNIQVQENFNISRIYGKWYNLAIGSTCPWLKKIMDRMTVSTLVLGEGATEAEISMTSTRWRKGVCEETSGAYEKTDTDGKFLYHKSKWNITMESYVVHTNYDEYAIFLTKKFSRHHGPTITAKLYGRAPQLRETLLQDFRVVAQGVGIPEDSIFTMADRGECVPGEQEPEPILIPRVRRAVLPQEEEGSGGGQLVTEVTKKEDSCQLGYSAGPCMGMTSRYFYNGTSMACETFQYGGCMGNGNNFVTEKECLQTCRTVAACNLPIVRGPCRAFIQLWAFDAVKGKCVLFPYGGCQGNGNKFYSEKECREYCGVPGDGDEELLRFSN |

Source: article PMC7316369
